# Laboratory results: paper PMC11229512
# Protein sequences, listed by entry. Tags and fused reporters are not part of them. Lines headed by an entry give the natural chain unless they say otherwise; changes in a name come on top.
# UniProt Q8N3Z3: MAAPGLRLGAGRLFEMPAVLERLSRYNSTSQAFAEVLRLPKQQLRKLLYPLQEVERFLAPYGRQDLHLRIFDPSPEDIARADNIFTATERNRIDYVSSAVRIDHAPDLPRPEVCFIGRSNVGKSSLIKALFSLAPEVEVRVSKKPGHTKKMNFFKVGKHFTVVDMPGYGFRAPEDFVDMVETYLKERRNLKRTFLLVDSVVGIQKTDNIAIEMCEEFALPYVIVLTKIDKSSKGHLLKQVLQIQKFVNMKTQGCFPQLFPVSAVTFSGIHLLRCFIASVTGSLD
# Results are given in words; binding and its absence hold for the method and conditions named. Binding seen in cells or lysates may run through a third protein. A yes stands for co-enrichment or nearness to the bait. Other partners may have been found.
# B1: DDX28 (protein, UniProt Q9NUL7 1-540)
# chain: MALTRPVRLFSLVTRLLLAPRRGLTVRSPDEPLPVVRIPVALQRQLEQRQSRRRNLPRPVLVRPGPLLVSARRPELNQPARLTLGRWERAPLASQGWKSRRARRDHFSIERAQQEAPAVRKLSSKGSFADLGLEPRVLHALQEAAPEVVQPTTVQSSTIPSLLRGRHVVCAAETGSGKTLSYLLPLLQRLLGQPSLDSLPIPAPRGLVLVPSRELAQQVRAVAQPLGRSLGLLVRDLEGGHGMRRIRLQLSRQPSADVLVATPGALWKALKSRLISLEQLSFLVLDEADTLLDESFLELVDYILEKSHIAEGPADLEDPFNPKAQLVLVGATFPEGVGQLLNKVASPDAVTTITSSKLHCIMPHVKQTFLRLKGADKVAELVHILKHRDRAERTGPSGTVLVFCNSSSTVNWLGYILDDHKIQHLRLQGQMPALMRVGIFQSFQKSSRDILLCTDIASRGLDSTGVELVVNYDFPPTLQDYIHRAGRVGRVGSEVPGTVISFVTHPWDVSLVQKIELAARRRRSLPGLASSVKEPLPQAT
# Target: C-terminal FLAG-tagged GTPBP8 (human) (UniProt Q8N3Z3)
# Test: affinity purification with mass spectrometry; FLAG-IP (Sigma-Aldrich kit) of GTPBP8::FLAG from mitochondrial lysate of HEK293 induced with 50 ng/ml doxycycline for 48 h; buffers with 5 mM MgCl2; elution with 3X FLAG peptides; LFQ mass spectrometry against mtLuc::FLAG control; thresholds log2FC > 3 and adj. p-value < 0.05
binder,measurement,value
B1,binding,binds
